No constants are given. Whether binding was seen depends on the method and setting. In cells and extracts the contact can be indirect.

This note sets out measurements from paper PMC9765026.

For this experiment, the target named is PBP1A-FLAG (A. baumannii PBP1A with a C-terminal Flag fusion) (A. baumannii). The experiment can be described thus: co-IP; A. baumannii cells in mid-logarithmic growth cross-linked in vivo with 25 mM DSP (1 h, 37°C), quenched with glycine, lysed and solubilised (Triton X-100); FLAG-tagged bait precipitated overnight at 4°C on anti-FLAG M2 affinity resin, washed 4 times with RIPA buffer; partners detected by Western blot with specific antisera. (In general: A western blot detects proteins with antibodies after separation by electrophoresis.)

B1: PBP2 (A. baumannii, endogenous) (enzyme, UniProt D0C8Z9 1-672)
chain: MKQHFPLKDIQQEKRIYRGRIFFAVGLVIICLLVLASRYAYLQIFHYDEFSTASDKNRIRLQPLPPARGYIYDRNGVLLADNYPVFTATLSKADVENVDTVIEQLQPILELTQEDVDRFKSRIKTARKTERVAIKLNLTETNIAKFSEVKYKFPGVRIETQMTRYYPHGDLFAHVIGYVGRINDKELKSIDKDLYAGTNLIGKIGVEKSYEDLLHGTPGYESVEADAHSNILRHLGRKDPTRGNDLYLSLDYGLQVVASQQLAGRRGAIVAIDPRTGEILALVSSPSFNPNLFVTGINHKDYSSLRDNIDQPLYNRAVQGVYPPGSTIKPMEAMGGLHYGIVDWATAISDPGYFHLPGDSHKFRDWKKTGHGIVNMHKAIIMSCDTYFYILANQMGIDQMNQWMRQFGFGQKTGVDLPSESEGLYPNPEWKMRTRKSKWMKGETISVSIGQGAFTATPLQLAMATAITANHGSHVVPHVLRATHGAKPFTVRNAPDGKINFNGTDEDWVKMREAMIDVIQSGTGRGIRTPLYQIAGKTGTAQVKSIAQGKRYNEAALSERQLDHGLFVGFAPADKPEIAIAVIWENGRHGGSAAQLAKPVFDYWLLTRKKNPIRPANHQVNGGLMTAGIKPGELPSGNESASSTPATSAPTSAAASTPQATPTRPATNEVDE
With B1, the binding result is “no binding”.
